In the supplement of paper PMC8728848:
The list shows a part of the results.

Experiments:
Assay in all cases: glycan array binding signal (z-score within array); higher = stronger binding
Details in all cases: glycan notation: IUPAC condensed, linker removed
Glc(b1-6)Glc = target: Glc(b1-6)Glc
Outline: (§1)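 Columns mapping to the same glycan were averaged after glycan names were converted to IUPAC-condensed notation. The data come from 3228 arrays in the Consortium for Functional Glycomics database, limited to those with an available protein sequence. Binding is reported as a within-array Z-score averaged across arrays of one protein sequence and across linkers.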

GlcA(b1-3)Gal = target: GlcA(b1-3)Gal
Outline: as §1

GlcA(b1-3)GlcNAc = target: GlcA(b1-3)GlcNAc
Outline: as §1

GlcA(b1-6)Gal = target: GlcA(b1-6)Gal
Outline: as §1

[1] = target: GlcA3S(b1-3)Gal(b1-4)GlcNAc(b1-2)Man
Outline: as §1

[2] = target: GlcA3S(b1-3)Gal(b1-4)GlcNAc(b1-3)Gal(b1-4)Glc
Outline: as §1

[3] = target: GlcNAc(a1-3)Gal(b1-4)GlcNAc
Outline: as §1

[4] = target: GlcNAc(a1-4)Gal(b1-3)GlcNAc
Outline: as §1

[5] = target: GlcNAc(a1-4)Gal(b1-4)GalNAc
Outline: as §1

[6] = target: GlcNAc(a1-4)Gal(b1-4)GlcNAc
Outline: as §1

[7] = target: GlcNAc(a1-4)Gal(b1-4)GlcNAc(b1-3)Gal(b1-4)Glc
Outline: as §1

[8] = target: GlcNAc(a1-4)Gal(b1-4)GlcNAc(b1-3)Gal(b1-4)GlcNAc
Outline: as §1

[9] = target: GlcNAc(a1-4)Gal(b1-4)GlcNAc(b1-3)Gal(b1-4)GlcNAc(b1-3)Gal(b1-4)GlcNAc
Outline: as §1

[10] = target: GlcNAc(a1-4)Gal(b1-4)GlcNAc(b1-3)Gal(b1-4)[Fuc(a1-3)]GlcNAc(b1-3)Gal(b1-4)[Fuc(a1-3)]GlcNAc
Outline: as §1

[11] = target: GlcNAc(a1-6)Gal(b1-4)GlcNAc
Outline: as §1

[12] = target: GlcNAc(b1-2)Gal(b1-3)GalNAc
Outline: as §1

[13] = target: GlcNAc(b1-2)Man(a1-3)[GlcNAc(b1-2)Man(a1-6)]Man(b1-4)GlcNAc(b1-4)GlcNAc
Outline: as §1

[14] = target: GlcNAc(b1-2)Man(a1-3)[GlcNAc(b1-2)Man(a1-6)]Man(b1-4)GlcNAc(b1-4)[Fuc(a1-6)]GlcNAc
Outline: as §1

[15] = target: GlcNAc(b1-2)Man(a1-3)[GlcNAc(b1-4)][GlcNAc(b1-2)Man(a1-6)]Man(b1-4)GlcNAc(b1-4)GlcNAc
Outline: as §1

[16] = target: GlcNAc(b1-2)Man(a1-3)[GlcNAc(b1-4)][GlcNAc(b1-2)Man(a1-6)]Man(b1-4)GlcNAc(b1-4)[Fuc(a1-6)]GlcNAc
Outline: as §1

[17] = target: GlcNAc(b1-2)[GlcNAc(b1-4)]Man(a1-3)[GlcNAc(b1-2)Man(a1-6)]Man(b1-4)GlcNAc(b1-4)GlcNAc
Outline: as §1

[18] = target: GlcNAc(b1-2)[GlcNAc(b1-4)]Man(a1-3)[GlcNAc(b1-4)][GlcNAc(b1-2)Man(a1-6)]Man(b1-4)GlcNAc(b1-4)GlcNAc
Outline: as §1

[19] = target: GlcNAc(b1-2)[GlcNAc(b1-4)]Man(a1-3)[GlcNAc(b1-4)][GlcNAc(b1-2)[GlcNAc(b1-6)]Man(a1-6)]Man(b1-4)GlcNAc(b1-4)GlcNAc
Outline: as §1

[20] = target: GlcNAc(b1-2)[GlcNAc(b1-4)]Man(a1-3)[GlcNAc(b1-4)][GlcNAc(b1-2)[GlcNAc(b1-6)]Man(a1-6)]Man(b1-4)GlcNAc(b1-4)[Fuc(a1-6)]GlcNAc
Outline: as §1

[21] = target: GlcNAc(b1-2)[GlcNAc(b1-6)]Man(a1-6)[GlcNAc(b1-2)Man(a1-3)]Man(b1-4)GlcNAc(b1-4)GlcNAc
Outline: as §1

[22] = target: GlcNAc(b1-2)[GlcNAc(b1-6)]Man(a1-6)[GlcNAc(b1-2)Man(a1-3)]Man(b1-4)GlcNAc(b1-4)[Fuc(a1-6)]GlcNAc
Outline: as §1

[23] = target: GlcNAc(b1-2)[GlcNAc(b1-6)]Man(a1-6)[GlcNAc(b1-4)][GlcNAc(b1-2)Man(a1-3)]Man(b1-4)GlcNAc(b1-4)GlcNAc
Outline: as §1

GlcNAc(b1-3)Fuc = target: GlcNAc(b1-3)Fuc
Outline: as §1

GlcNAc(b1-3)Gal = target: GlcNAc(b1-3)Gal
Outline: as §1

[24] = target: GlcNAc(b1-3)Gal(b1-3)GalNAc
Outline: as §1

GlcNAc(b1-3)Gal(b1-4)Glc = target: GlcNAc(b1-3)Gal(b1-4)Glc
Outline: as §1

[25] = target: GlcNAc(b1-3)Gal(b1-4)GlcNAc
Outline: as §1

[26] = target: GlcNAc(b1-3)Gal(b1-4)GlcNAc(b1-2)Man(a1-3)[GlcNAc(b1-3)Gal(b1-4)GlcNAc(b1-2)Man(a1-6)]Man(b1-4)GlcNAc(b1-4)GlcNAc
Outline: as §1

[27] = target: GlcNAc(b1-3)Gal(b1-4)GlcNAc(b1-2)Man(a1-3)[GlcNAc(b1-3)Gal(b1-4)GlcNAc(b1-2)Man(a1-6)]Man(b1-4)GlcNAc(b1-4)[Fuc(a1-6)]GlcNAc
Outline: as §1

[28] = target: GlcNAc(b1-3)Gal(b1-4)GlcNAc(b1-2)[GlcNAc(b1-3)Gal(b1-4)GlcNAc(b1-6)]Man(a1-6)[GlcNAc(b1-3)Gal(b1-4)GlcNAc(b1-2)Man(a1-3)]Man(b1-4)GlcNAc(b1-4)GlcNAc
Outline: as §1

[29] = target: GlcNAc(b1-3)Gal(b1-4)GlcNAc(b1-3)Gal(b1-4)GlcNAc
Outline: as §1

[30] = target: GlcNAc(b1-3)Gal(b1-4)GlcNAc(b1-3)Gal(b1-4)GlcNAc(b1-2)Man(a1-3)[GlcNAc(b1-3)Gal(b1-4)GlcNAc(b1-3)Gal(b1-4)GlcNAc(b1-2)Man(a1-6)]Man(b1-4)GlcNAc(b1-4)GlcNAc
Outline: as §1

B1: PX9961W-pdi-543-27-543 (Parabacteroides distasonis) (protein)
chain: EGNATTTSYFLNDQQAIDAIDGLYERFHQEGCYGRELFWEQGAACDIVWGRTRGYNSLATLAYTGDESPLRDVFSRMYSTMSRANWIIQELVKKEKGTTLTAVEKRSLGEAYFSRGWAHYLIAYRYGTDKQGVPFVRYEDFPDDYDNSIPPQQATVMDNYKLIIEDMDKAIAYLPIFESYDADNRGRAHQAAAVAFKAKTYAYWATWDATQWNNVIEMVNQLENNYNRDLAPTFAELFSSDLKDYWNAEYLWTIPSIGGALPGGTEFPGIILENKGWGKYNGWGQMKPSYDIYEEMAKDGKGNDRLVRSILEYNQEFPFFGETRKFWSTSDLEAGFMINKYMDAFKYSDPVGEGAVSANGDWPTVRVNFPIIRFAEMLLFRAEAYLMTGQADKATADINRIRLRSNLTPLTGTATMKDLYHERRCELAFEFTDHLFDLKRWNRSSNADIKTLADKELNAHPRIRRYEDRANPESAFTIIGYEDYTNKNAYQAHMMVFPYPSEEITKSNGQLKQNEGY
Glc(b1-6)Glc
  glycan array binding signal (z-score): 0.658
GlcA(b1-3)Gal
  glycan array binding signal (z-score): 0.097
GlcA(b1-3)GlcNAc
  glycan array binding signal (z-score): 0.817
GlcA(b1-6)Gal
  glycan array binding signal (z-score): -0.459
[1]
  glycan array binding signal (z-score): 0.015
[2]
  glycan array binding signal (z-score): -0.46
[3]
  glycan array binding signal (z-score): 0.048
[4]
  glycan array binding signal (z-score): 0.356
[5]
  glycan array binding signal (z-score): 0.061
[6]
  glycan array binding signal (z-score): -0.83
[7]
  glycan array binding signal (z-score): -0.346
[8]
  glycan array binding signal (z-score): 0.041
[9]
  glycan array binding signal (z-score): 0.279
[10]
  glycan array binding signal (z-score): -0.11
[11]
  glycan array binding signal (z-score): 0.398
[12]
  glycan array binding signal (z-score): -0.369
[13]
  glycan array binding signal (z-score): -0.878
[14]
  glycan array binding signal (z-score): 0.087
[15]
  glycan array binding signal (z-score): -0.603
[16]
  glycan array binding signal (z-score): -0.234
[17]
  glycan array binding signal (z-score): -0.57
[18]
  glycan array binding signal (z-score): -0.099
[19]
  glycan array binding signal (z-score): -0.623
[20]
  glycan array binding signal (z-score): -1.03
[21]
  glycan array binding signal (z-score): -0.815
[22]
  glycan array binding signal (z-score): -0.434
[23]
  glycan array binding signal (z-score): -1.41
GlcNAc(b1-3)Fuc
  glycan array binding signal (z-score): 1.1
GlcNAc(b1-3)Gal
  glycan array binding signal (z-score): -0.503
[24]
  glycan array binding signal (z-score): 0.459
GlcNAc(b1-3)Gal(b1-4)Glc
  glycan array binding signal (z-score): -0.018
[25]
  glycan array binding signal (z-score): -0.442
[26]
  glycan array binding signal (z-score): 0.398
[27]
  glycan array binding signal (z-score): 0.81
[28]
  glycan array binding signal (z-score): 2.42
[29]
  glycan array binding signal (z-score): 1.36
[30]
  glycan array binding signal (z-score): 2.38
